Laboratory results published in PubChem BioAssay AID1671190 (National Center for Advancing Translational Sciences (NCATS), 2021).
Hit rate of the full screen: of about 580,000 compounds, about 6,100 (1.1%) were called active. Inconclusive results, whose numbers are uncertain, are shown with a selection of clear calls. Calls come from the whole dose curve; as a rule, active = well fitted inhibition curve with a large enough effect; inconclusive = small, poorly fitted or top-dose-only effect, or another doubt; inactive = no such curve, though single readings can be large or run the other way. Potencies of inconclusive entries are doubtful fits and often do not repeat.

By UniProt entry, the sequences of proteins in these tests, tags left out. Where a name states a change or a piece, a line headed by the entry shows the natural chain unless it says otherwise.
UniProt P18054: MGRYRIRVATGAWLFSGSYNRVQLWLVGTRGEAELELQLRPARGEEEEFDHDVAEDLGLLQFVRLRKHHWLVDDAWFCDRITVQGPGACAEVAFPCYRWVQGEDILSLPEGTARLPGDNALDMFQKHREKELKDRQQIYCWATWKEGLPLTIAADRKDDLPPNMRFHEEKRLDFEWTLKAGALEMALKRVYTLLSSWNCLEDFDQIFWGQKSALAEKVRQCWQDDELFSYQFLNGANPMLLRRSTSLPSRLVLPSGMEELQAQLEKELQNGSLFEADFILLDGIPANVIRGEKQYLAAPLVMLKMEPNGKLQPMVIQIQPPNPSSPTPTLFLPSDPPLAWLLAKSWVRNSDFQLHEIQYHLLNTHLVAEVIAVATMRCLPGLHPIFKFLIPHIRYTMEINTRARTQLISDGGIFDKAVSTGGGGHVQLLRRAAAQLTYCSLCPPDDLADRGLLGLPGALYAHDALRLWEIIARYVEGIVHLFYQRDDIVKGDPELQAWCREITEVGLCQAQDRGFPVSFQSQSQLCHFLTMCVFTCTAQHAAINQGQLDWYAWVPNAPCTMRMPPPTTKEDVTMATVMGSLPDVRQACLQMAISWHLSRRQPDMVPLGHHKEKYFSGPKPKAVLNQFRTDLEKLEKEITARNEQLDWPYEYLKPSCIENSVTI

Biological target: Polyunsaturated fatty acid lipoxygenase ALOX12 (Homo sapiens) (UniProt P18054)
Test: Primary qHTS assay for inhibitors of human arachidonate 12S-lipoxygenase (ALOX12): Round 2
Conditions: purified 12hLO, xylenol orange hydroperoxide absorbance; series mostly up to 108 µM
Method in brief: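 Purified human 12hLO (150 nM final) in 25 mM Hepes, 0.01% Triton X-100, pH 7.0 was preincubated 15 min at room temperature with compound. Then 40 uM arachidonic acid was added, 30 min. Hydroperoxide was read by Fe-XO absorbance ratio 573/405 nm.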
Potency is the fitted concentration of half-maximal effect.

SMILES	Potency
COc1ccc(Br)cc1CN1CCC(N2CCCC2)CC1	inconclusive: 0.708 µM [inhibitor, full curve, poor fit]
COCCCNC(=S)N/N=C/c1ccc(OC)c(Br)c1	active: 25.1 µM
COCCn1c(C)c(C)c(S(=O)(=O)c2ccc(F)cc2)c1NC(=O)C(C)C	inactive
COc1ccc(-c2cccc(-c3cc(=O)oc4cc5c(cc34)OCO5)c2)cc1	inconclusive: 112 µM [inhibitor, single point]
Cc1ccc(-c2noc(-c3cc(C(C)(C)C)nn3Cc3ccccc3)n2)cc1	inconclusive: 112 µM [inhibitor, partial curve, poor fit]
O=C(CSC1CCCCC1)c1ccccc1Br	active: 35.5 µM
CC(C)c1noc(-c2cn(C3CCN(C(=O)c4ccc(OC(F)(F)F)cc4)C3)nn2)n1 (stereo not drawn)	inactive
COc1cccc(-c2ncn(CCc3ccccc3OC)c2CC(C)C)c1	inconclusive: 50.1 µM [inhibitor, partial curve, poor fit]
COc1ccc(-c2cc(C(F)(F)F)nc(S(=O)(=O)CCC(=O)Nc3ccc(Cl)cc3)n2)cc1	inconclusive: 31.6 µM [inhibitor, partial curve]
CCN1C(=O)[C@H]2[C@H]3CN=C(SCc4ccc(Cl)cc4)N3[C@@](CC)(C(=O)OC)[C@H]2C1=O	inconclusive: 22.4 µM [inhibitor, partial curve, poor fit]
C=CCn1c(SCC(=O)NCCCC(=O)OCC)nc2scc(-c3ccco3)c2c1=O	inconclusive: 44.7 µM [inhibitor, partial curve, poor fit]
O=C(O)c1ccc(Nc2nc3c(s2)CCCC3)cc1	inactive
COc1ccc(-c2cc(C(=O)Nc3cc(OC)c(OC)c(OC)c3)no2)cc1	inactive
COc1ccc(N2CCN(S(=O)(=O)CCNS(=O)(=O)c3ccccc3)CC2)cc1	inconclusive: 100 µM [inhibitor, single point]
CCOC(=O)C1=CC[C@@H](c2ccccc2)N(S(=O)(=O)c2ccc(C)cc2)[C@@H]1C#N	inconclusive: 100 µM [inhibitor, partial curve, poor fit]
Cc1cc(Br)ccc1SCC(=O)OCC(=O)NC12CC3CC(CC(C3)C1)C2	inactive
CCOC(=O)C1(CCOc2ccccc2)CCN(Cc2cc(OC)c(O)c(OC)c2)CC1	inconclusive: 112 µM [inhibitor, single point]
CCCCCCOc1ccc(C(=O)N2CCN(c3oc(-c4ccco4)nc3C#N)CC2)cc1OC	inconclusive: 79.4 µM [inhibitor, partial curve, poor fit]

Taken from above for reference:
SMILES	Potency
CC(C)c1noc(-c2cn(C3CCN(C(=O)c4ccc(OC(F)(F)F)cc4)C3)nn2)n1 (stereo not drawn)	inactive
COc1cccc(-c2ncn(CCc3ccccc3OC)c2CC(C)C)c1	inconclusive: 50.1 µM [inhibitor, partial curve, poor fit]
